Test results published in the supplement of paper PMC10849652.
Some of the results follow.

Chains of the proteins cited; added tags and fusions are not shown. Lines headed by an entry give the natural chain unless they say otherwise; changes in a name come on top.
UniProt O00541, whole entry, looked up: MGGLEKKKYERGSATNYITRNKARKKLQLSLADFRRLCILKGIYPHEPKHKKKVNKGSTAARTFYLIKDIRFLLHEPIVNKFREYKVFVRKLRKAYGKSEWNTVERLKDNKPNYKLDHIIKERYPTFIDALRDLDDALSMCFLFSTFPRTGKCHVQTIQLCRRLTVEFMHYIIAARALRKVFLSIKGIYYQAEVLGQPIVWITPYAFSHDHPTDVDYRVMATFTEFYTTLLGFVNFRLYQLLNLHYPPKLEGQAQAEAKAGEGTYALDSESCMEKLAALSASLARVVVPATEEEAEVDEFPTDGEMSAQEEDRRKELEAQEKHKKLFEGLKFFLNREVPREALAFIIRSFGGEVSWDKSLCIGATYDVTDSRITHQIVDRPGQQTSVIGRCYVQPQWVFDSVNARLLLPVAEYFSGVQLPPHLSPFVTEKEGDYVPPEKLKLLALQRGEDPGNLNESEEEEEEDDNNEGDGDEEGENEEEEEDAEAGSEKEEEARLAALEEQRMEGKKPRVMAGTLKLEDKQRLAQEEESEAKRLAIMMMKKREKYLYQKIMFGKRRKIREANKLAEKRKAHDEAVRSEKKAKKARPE
UniProt P22061: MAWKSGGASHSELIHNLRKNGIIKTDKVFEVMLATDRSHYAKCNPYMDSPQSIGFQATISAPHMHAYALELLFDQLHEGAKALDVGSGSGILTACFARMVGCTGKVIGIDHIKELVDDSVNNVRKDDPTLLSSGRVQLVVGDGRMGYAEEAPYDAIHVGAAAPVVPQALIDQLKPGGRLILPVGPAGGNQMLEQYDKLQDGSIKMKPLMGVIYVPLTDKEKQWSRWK
UniProt Q8NEN9: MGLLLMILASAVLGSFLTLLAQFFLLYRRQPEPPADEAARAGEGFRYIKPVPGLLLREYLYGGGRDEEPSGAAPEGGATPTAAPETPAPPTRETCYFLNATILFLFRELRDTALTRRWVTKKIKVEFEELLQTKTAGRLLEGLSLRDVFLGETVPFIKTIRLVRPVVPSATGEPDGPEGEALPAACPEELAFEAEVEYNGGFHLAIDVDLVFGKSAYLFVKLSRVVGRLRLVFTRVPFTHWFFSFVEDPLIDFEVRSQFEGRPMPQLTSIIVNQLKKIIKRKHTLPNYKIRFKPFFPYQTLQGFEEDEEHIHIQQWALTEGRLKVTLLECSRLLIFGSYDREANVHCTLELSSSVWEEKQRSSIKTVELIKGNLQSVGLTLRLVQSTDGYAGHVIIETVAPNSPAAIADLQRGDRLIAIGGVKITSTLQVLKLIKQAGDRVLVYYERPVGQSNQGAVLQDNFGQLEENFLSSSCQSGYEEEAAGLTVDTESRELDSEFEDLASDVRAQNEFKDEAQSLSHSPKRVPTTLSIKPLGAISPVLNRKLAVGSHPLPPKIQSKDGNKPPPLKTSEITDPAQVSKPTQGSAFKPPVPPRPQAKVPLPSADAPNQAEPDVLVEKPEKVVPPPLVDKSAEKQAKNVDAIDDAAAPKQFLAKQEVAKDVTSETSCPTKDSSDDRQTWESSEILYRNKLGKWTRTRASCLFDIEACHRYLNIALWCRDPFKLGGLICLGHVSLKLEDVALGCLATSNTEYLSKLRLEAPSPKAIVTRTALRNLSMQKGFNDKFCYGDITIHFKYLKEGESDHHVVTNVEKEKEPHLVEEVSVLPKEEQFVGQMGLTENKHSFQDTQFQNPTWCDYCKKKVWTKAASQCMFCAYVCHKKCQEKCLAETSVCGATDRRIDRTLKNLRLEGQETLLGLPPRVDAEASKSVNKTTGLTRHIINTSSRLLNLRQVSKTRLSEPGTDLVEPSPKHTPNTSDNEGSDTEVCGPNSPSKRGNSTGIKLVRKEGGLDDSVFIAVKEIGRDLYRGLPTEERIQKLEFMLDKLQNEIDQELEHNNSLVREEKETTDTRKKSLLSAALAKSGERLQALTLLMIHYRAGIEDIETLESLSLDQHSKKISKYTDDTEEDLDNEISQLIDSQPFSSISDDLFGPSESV
UniProt Q9H2J4: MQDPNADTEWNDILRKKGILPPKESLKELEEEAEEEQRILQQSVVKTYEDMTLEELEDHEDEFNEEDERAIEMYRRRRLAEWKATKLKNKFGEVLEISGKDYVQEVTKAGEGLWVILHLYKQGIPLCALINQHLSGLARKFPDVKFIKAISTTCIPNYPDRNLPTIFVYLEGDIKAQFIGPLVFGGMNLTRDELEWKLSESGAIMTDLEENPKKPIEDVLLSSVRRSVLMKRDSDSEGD
UniProt Q6P996: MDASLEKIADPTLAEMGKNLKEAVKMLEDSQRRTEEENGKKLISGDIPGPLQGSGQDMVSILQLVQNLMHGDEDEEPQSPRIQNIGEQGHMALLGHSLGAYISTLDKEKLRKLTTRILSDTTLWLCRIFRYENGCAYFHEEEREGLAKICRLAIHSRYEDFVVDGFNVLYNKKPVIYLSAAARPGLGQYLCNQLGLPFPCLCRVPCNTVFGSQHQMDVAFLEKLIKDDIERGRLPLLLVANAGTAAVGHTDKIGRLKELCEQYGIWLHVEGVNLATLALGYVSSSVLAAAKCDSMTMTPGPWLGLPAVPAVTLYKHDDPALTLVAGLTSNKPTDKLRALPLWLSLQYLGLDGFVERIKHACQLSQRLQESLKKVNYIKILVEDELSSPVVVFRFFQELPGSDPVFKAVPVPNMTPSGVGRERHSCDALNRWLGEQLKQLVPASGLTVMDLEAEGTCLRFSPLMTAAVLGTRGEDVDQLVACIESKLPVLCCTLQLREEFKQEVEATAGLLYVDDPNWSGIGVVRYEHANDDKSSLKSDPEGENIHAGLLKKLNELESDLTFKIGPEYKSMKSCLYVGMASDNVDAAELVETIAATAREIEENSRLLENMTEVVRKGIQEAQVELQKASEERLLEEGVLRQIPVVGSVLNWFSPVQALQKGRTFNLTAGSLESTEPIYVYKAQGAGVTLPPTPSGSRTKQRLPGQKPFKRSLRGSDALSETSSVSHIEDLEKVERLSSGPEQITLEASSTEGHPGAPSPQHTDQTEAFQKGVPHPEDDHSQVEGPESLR
UniProt P12004, whole entry, looked up: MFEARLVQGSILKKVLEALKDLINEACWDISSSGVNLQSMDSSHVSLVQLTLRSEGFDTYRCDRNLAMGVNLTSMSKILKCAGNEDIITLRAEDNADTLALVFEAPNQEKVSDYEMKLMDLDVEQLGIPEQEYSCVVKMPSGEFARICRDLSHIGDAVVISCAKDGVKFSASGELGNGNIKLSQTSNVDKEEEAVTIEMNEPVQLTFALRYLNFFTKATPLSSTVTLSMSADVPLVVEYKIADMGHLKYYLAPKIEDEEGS
UniProt Q13442: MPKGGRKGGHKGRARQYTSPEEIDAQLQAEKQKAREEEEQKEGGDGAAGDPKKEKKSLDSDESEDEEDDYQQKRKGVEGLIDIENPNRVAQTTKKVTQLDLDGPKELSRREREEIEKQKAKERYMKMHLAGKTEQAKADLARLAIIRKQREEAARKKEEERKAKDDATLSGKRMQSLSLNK
UniProt Q15118, whole entry, looked up: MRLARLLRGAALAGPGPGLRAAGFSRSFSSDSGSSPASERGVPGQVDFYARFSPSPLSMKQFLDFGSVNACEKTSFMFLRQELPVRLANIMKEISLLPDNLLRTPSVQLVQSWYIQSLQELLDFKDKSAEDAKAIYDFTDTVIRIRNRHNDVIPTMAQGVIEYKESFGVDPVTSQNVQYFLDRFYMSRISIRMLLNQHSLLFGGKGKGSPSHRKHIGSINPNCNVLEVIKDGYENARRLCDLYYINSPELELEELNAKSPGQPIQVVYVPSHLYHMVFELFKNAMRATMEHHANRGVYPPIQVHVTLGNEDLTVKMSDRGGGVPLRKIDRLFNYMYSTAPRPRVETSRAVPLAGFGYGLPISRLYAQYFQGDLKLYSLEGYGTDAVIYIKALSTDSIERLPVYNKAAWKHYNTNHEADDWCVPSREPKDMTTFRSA
UniProt P50479: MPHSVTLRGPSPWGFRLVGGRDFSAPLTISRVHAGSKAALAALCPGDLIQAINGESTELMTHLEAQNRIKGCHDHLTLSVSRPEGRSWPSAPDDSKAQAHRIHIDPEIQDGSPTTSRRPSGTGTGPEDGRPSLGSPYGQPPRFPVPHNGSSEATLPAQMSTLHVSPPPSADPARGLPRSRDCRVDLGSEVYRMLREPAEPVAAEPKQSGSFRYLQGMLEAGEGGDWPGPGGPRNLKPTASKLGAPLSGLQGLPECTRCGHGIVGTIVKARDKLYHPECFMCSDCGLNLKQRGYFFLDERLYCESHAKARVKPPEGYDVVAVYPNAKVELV
UniProt Q99447: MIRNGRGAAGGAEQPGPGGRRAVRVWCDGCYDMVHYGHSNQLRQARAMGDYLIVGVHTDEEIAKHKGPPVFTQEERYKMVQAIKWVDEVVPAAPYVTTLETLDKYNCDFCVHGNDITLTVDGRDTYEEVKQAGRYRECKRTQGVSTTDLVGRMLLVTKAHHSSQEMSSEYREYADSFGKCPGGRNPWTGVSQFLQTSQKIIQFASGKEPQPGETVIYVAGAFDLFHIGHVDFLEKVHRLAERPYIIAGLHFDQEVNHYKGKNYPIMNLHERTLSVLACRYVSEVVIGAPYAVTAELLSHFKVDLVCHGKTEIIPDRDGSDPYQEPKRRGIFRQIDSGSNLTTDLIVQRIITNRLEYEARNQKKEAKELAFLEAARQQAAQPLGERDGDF
UniProt Q96HC4: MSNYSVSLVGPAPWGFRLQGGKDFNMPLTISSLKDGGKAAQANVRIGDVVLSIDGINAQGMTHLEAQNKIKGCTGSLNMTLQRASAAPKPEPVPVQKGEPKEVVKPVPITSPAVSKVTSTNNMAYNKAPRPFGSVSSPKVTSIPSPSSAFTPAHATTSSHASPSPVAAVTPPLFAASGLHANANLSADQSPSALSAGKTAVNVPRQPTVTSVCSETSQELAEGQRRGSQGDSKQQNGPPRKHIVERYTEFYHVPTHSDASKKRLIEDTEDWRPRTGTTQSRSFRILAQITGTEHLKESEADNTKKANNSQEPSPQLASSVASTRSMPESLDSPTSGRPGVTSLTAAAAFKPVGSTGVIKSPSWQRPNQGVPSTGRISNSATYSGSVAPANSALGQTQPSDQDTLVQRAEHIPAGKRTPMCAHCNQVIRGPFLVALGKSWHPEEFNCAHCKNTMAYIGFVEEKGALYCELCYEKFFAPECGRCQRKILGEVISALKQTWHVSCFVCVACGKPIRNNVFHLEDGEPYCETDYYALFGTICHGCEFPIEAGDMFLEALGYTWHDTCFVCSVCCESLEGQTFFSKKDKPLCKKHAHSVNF
UniProt O43252: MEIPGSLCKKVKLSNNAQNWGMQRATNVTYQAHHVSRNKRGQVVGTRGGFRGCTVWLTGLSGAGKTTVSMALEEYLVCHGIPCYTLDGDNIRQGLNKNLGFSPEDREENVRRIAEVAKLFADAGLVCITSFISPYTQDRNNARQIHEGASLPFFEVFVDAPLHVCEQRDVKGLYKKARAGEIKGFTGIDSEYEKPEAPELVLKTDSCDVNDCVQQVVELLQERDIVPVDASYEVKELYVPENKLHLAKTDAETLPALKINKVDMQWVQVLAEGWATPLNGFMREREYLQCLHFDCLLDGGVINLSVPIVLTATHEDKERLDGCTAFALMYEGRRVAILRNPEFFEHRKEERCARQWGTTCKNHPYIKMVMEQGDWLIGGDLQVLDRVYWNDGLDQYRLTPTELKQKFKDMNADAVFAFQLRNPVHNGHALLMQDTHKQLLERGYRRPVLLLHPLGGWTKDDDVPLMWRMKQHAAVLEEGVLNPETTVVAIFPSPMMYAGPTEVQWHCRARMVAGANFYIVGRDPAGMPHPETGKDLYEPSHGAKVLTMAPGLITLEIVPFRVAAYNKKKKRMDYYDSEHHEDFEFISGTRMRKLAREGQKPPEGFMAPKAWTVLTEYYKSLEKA
UniProt Q7L3T8: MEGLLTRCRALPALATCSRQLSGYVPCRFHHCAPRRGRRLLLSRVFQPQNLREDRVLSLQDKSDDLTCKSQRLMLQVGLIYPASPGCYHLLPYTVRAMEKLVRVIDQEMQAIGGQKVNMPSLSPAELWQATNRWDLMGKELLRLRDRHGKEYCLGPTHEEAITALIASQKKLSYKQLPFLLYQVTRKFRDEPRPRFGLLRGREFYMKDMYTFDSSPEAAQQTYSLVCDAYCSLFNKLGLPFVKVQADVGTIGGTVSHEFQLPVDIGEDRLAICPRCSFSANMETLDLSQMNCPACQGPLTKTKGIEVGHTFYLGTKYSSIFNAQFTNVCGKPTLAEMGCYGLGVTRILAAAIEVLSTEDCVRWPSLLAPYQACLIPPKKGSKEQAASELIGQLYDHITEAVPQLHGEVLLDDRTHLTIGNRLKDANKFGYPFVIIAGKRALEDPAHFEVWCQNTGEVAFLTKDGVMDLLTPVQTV

What was measured:
Experiment in all cases: log2 fold change, soluble protein after heating vs DMSO (PISA); higher = thermal stabilisation; K562 cells, 10 uM, 30 min; active = over 0.2 and 3.5 SD of the protein, either way, in both replicates (recomputed)
[1] = compound: CS(=O)(=O)c1ccc(-c2cnc(N)c(C(=O)Nc3ccccc3)n2)cc1
Procedure, shortened: (§1)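 For each measurement, 10 μM compound was applied for 30 min to K562 cells at 2×10^6 cells/mL. Aliquots were heated for 3 min across 48°C-58°C, pooled, and extracted in PBS with 0.5% NP-40 at 4°C; the supernatant after 21,000xg for 90 min was soluble protein. This was quantified by TMTpro 16plex LC-MS/MS with channel sums equalised, and thermal stability was reported relative to control samples from duplicates, on a log2 fold-change scale.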

[2] = compound: C[C@@H](Oc1cc(-c2cnn(C3CCNCC3)c2)cnc1N)c1c(Cl)ccc(F)c1Cl [crizotinib]
Procedure, shortened: as §1

[3] = compound: C[C@@H]1COCCN1C2=NC(=NC(=C2)C3(CC3)S(=O)(=O)C)C4=C5C=CNC5=CC=C4
Procedure, shortened: as §1

[4] = compound: C[C@H](C1=CC=C(C=C1)C(=O)NC2=C3C=CNC3=NC=C2)N
Procedure, shortened: as §1

[5] = compound: C[C@H](Nc1ncnc2nc[nH]c12)c1cc2cccc(Cl)c2c(=O)n1-c1ccccc1 [duvelisib]
Procedure, shortened: as §1

[6] = compound: Cc1cc(Nc2cc(CN3CCOCC3)c3nc(C)c(Cc4ccc(Cl)cc4F)n3n2)n[nH]1 [gandotinib]
Procedure, shortened: as §1

[7] = compound: Cc1cc(Nc2cc(N3CCN(C)CC3)nc(Sc3ccc(NC(=O)C4CC4)cc3)n2)n[nH]1 [tozasertib]
Procedure, shortened: as §1

[8] = compound: Cc1cc(SCc2sc(-c3ccc(C(F)(F)F)cc3)nc2C)ccc1OCC(=O)O
Procedure, shortened: as §1

[9] = compound: Cc1ccc(-n2nc(C(C)(C)C)cc2NC(=O)Nc2ccc(OCCN3CCOCC3)c3ccccc23)cc1 [doramapimod]
Procedure, shortened: as §1

[10] = compound: Cc1ccc(C(=O)N(CCCN)[C@@H](c2nc3cc(Cl)ccc3c(=O)n2Cc2ccccc2)C(C)C)cc1 [ispinesib]
Procedure, shortened: as §1

[11] = compound: Cc1ccc(NC(=O)c2ccc(CN3CC[C@H](N(C)C)C3)c(C(F)(F)F)c2)cc1Nc1nccc(-c2cncnc2)n1 [bafetinib]
Procedure, shortened: as §1

[12] = compound: Cc1cccc(CC(=O)N2CCc3c2ccc(-c2cn(C)c4ncnc(N)c24)c3F)n1
Procedure, shortened: as §1

[13] = compound: Cc1cn(-c2cc(NC(=O)c3ccc(C)c(Nc4nccc(-c5cccnc5)n4)c3)cc(C(F)(F)F)c2)cn1 [nilotinib]
Procedure, shortened: as §1

[14] = compound: Cc1nc(Nc2n[nH]c3c2CN(C(=O)N[C@H](CN(C)C)c2ccccc2)C3(C)C)c2sccc2n1
Procedure, shortened: as §1

[15] = compound: Cc1nc(Nc2ncc(C(=O)Nc3c(C)cccc3Cl)s2)cc(N2CCN(CCO)CC2)n1 [dasatinib]
Procedure, shortened: as §1

[16] = compound: Cc1ncc(-c2ccnc(Nc3ccc(S(C)(=O)=O)cc3)n2)n1C(C)C
Procedure, shortened: as §1

[17] = compound: Cn1cc(-c2ccc3c(c2)CCN3C(=O)Cc2cccc(C(F)(F)F)c2)c2c(N)ncnc21
Procedure, shortened: as §1

[18] = compound: Cn1cc(-c2ccc3nnc(C(F)(F)c4ccc5ncccc5c4)n3n2)cn1
Procedure, shortened: as §1

[19] = compound: Cn1cncc1[C@@](N)(c1ccc(Cl)cc1)c1ccc2c(c1)c(-c1cccc(Cl)c1)cc(=O)n2C [tipifarnib]
Procedure, shortened: as §1

[20] = compound: FC(F)(F)c1ccc(/C=C/c2nc(COc3ccc(CCCCn4ccnn4)cc3)co2)cc1 [mubritinib]
Procedure, shortened: as §1

Measured: log2 fold change

PES1 (UniProt O00541)
inactive: [1] -0.066 | [2] 0.249 | [3] -0.145 | [4] -0.064 | [5] -0.044 | [6] 0.111 | [7] 0.075 | [8] 0.074 | [9] 0.173 | [10] -0.162 | [11] 0.071 | [12] 0.003 | [13] -0.061 | [14] 0.157 | [15] 0.032 | [16] 0.079 | [17] -0.081 | [18] -0.172 | [19] 0.091 | [20] -0.047

PCMT1 isoform 2 (UniProt P22061)
inactive: [1] 0.024 | [2] 0.001 | [3] 0.08 | [4] -0.079 | [5] 0.068 | [6] 0.024 | [7] 0.028 | [8] 0.024 | [9] -0.005 | [10] 0.095 | [11] 0.001 | [12] -0.023 | [13] 0.04 | [14] 0.022 | [15] -0.02 | [16] -0.009 | [17] 0.05 | [18] -0.008 | [19] -0.049 | [20] 0.051

PEPD (UniProt P12955)
inactive: [1] 0 | [2] 0.032 | [3] 0.006 | [4] -0.087 | [5] 0.029 | [6] 0.002 | [7] 0.058 | [8] -0.059 | [9] -0.001 | [10] -0.019 | [11] 0.006 | [12] -0.07 | [13] 0.003 | [14] -0.02 | [15] 0.065 | [16] 0.039 | [17] 0.023 | [18] 0.016 | [19] -0.059 | [20] -0.002

PDZD8 (UniProt Q8NEN9)
inactive: [1] -0.006 | [2] -0.031 | [3] 0.039 | [4] -0.008 | [5] 0.028 | [6] -0.253 | [7] -0.002 | [8] -0.004 | [9] 0.046 | [10] -0.019 | [11] -0.054 | [12] 0.006 | [13] 0.001 | [14] -0.031 | [15] -0.029 | [16] -0.044 | [17] 0.057 | [18] -0.011 | [19] 0.038 | [20] -0.009

PDCL3 (UniProt Q9H2J4)
inactive: [1] 0.051 | [2] 0.023 | [3] 0.014 | [4] -0.053 | [5] 0.031 | [6] -0.049 | [7] 0.019 | [8] -0.012 | [9] -0.031 | [10] 0.047 | [11] -0.031 | [12] 0.006 | [13] -0.002 | [14] -0.004 | [15] 0.016 | [16] -0.012 | [17] 0.039 | [18] 0.005 | [19] -0.047 | [20] 0.05

PDXDC1 (UniProt Q6P996)
inactive: [1] 0.089 | [2] -0.069 | [3] -0.271 | [4] 0.303 | [5] -0.045 | [6] 0.057 | [7] 0.088 | [8] 0.062 | [9] 0.294 | [10] -0.261 | [11] -0.167 | [12] 0.081 | [13] -0.051 | [14] 0.042 | [15] 0.018 | [16] -0.086 | [17] -0.118 | [18] -0.158 | [19] -0.083 | [20] -0.058

PDLIM1 (UniProt O00151)
inactive: [1] -0.002 | [2] 0 | [3] -0.009 | [4] -0.082 | [5] 0.009 | [6] -0.022 | [7] -0.004 | [8] -0.005 | [9] -0.038 | [10] 0.039 | [11] -0.055 | [12] -0.016 | [13] 0.011 | [14] -0.005 | [15] 0.036 | [16] -0.01 | [17] 0.004 | [18] -0.019 | [19] -0.045 | [20] 0.009

PCNA (UniProt P12004)
inactive: [1] -0.008 | [2] 0.046 | [3] 0.019 | [4] -0.026 | [5] 0.031 | [6] 0.012 | [7] -0.045 | [8] -0.025 | [9] -0.028 | [10] 0.07 | [11] -0.027 | [12] -0.013 | [13] 0.012 | [14] -0.05 | [15] 0.035 | [16] 0.014 | [17] 0.018 | [18] 0.01 | [19] -0.006 | [20] 0.043

PDAP1 (UniProt Q13442)
inactive: [1] -0.072 | [2] -0.033 | [3] -0.059 | [4] 0.023 | [5] -0.003 | [6] 0.012 | [7] -0.061 | [8] -0.025 | [9] 0.063 | [10] 0.059 | [11] 0.034 | [12] -0.032 | [13] 0.006 | [14] 0.002 | [15] 0.022 | [16] -0.005 | [17] -0.014 | [18] 0.005 | [19] 0.011 | [20] 0.042

PDK1 (UniProt Q15118)
inactive: [1] 0.06 | [2] -0.012 | [3] 0.102 | [4] -0.034 | [5] 0.068 | [6] 0.007 | [7] -0.016 | [8] 0.019 | [9] -0.012 | [10] 0.067 | [11] -0.032 | [12] 0.026 | [13] 0.059 | [14] 0.02 | [15] -0.069 | [16] 0.014 | [17] 0.104 | [18] -0.029 | [19] 0.058 | [20] 0.023

2 entries drawn at random from those above, as already listed:
PDK1 (UniProt Q15118)
inactive: [1] 0.06 | [2] -0.012 | [3] 0.102 | [4] -0.034 | [5] 0.068 | [6] 0.007 | [7] -0.016 | [8] 0.019 | [9] -0.012 | [10] 0.067 | [11] -0.032 | [12] 0.026 | [13] 0.059 | [14] 0.02 | [15] -0.069 | [16] 0.014 | [17] 0.104 | [18] -0.029 | [19] 0.058 | [20] 0.023

PDAP1 (UniProt Q13442)
inactive: [1] -0.072 | [2] -0.033 | [3] -0.059 | [4] 0.023 | [5] -0.003 | [6] 0.012 | [7] -0.061 | [8] -0.025 | [9] 0.063 | [10] 0.059 | [11] 0.034 | [12] -0.032 | [13] 0.006 | [14] 0.002 | [15] 0.022 | [16] -0.005 | [17] -0.014 | [18] 0.005 | [19] 0.011 | [20] 0.042

Later entries:

PDLIM4 (UniProt P50479)
inactive: [1] -0.013 | [2] 0.026 | [3] 0.001 | [4] -0.022 | [5] 0.033 | [6] 0.007 | [7] 0.009 | [8] -0.083 | [9] -0.016 | [10] 0.068 | [11] -0.048 | [12] 0.003 | [13] 0.023 | [14] 0.002 | [15] 0.065 | [16] -0.009 | [17] 0.032 | [18] 0.001 | [19] -0.021 | [20] 0.057

PCYT2 isoform 3 (UniProt Q99447)
inactive: [1] -0.009 | [2] 0.054 | [3] 0.037 | [4] -0.073 | [5] 0.024 | [6] -0.056 | [7] -0.059 | [8] 0.009 | [9] -0.026 | [10] 0.185 | [11] -0.011 | [12] 0.011 | [13] -0.016 | [14] 0.033 | [15] -0.037 | [16] 0.027 | [17] 0.041 | [18] 0.038 | [19] -0.117 | [20] 0.017

PDPR (UniProt Q8NCN5)
inactive: [1] 0.061 | [2] 0.079 | [3] 0.026 | [4] -0.104 | [5] 0.027 | [6] 0.023 | [7] 0.024 | [8] -0.004 | [9] -0.013 | [10] 0.065 | [11] -0.033 | [12] 0.016 | [13] 0.102 | [14] -0.056 | [15] -0.013 | [16] -0.024 | [17] 0.037 | [18] 0.046 | [19] 0.004 | [20] 0.076

PDLIM5 (UniProt Q96HC4)
inactive: [1] 0.029 | [2] -0.089 | [3] 0.016 | [4] -0.059 | [5] 0.002 | [6] 0.045 | [7] -0.013 | [8] 0.009 | [9] -0.049 | [10] 0.01 | [11] -0.039 | [12] 0.024 | [13] 0.019 | [14] -0.011 | [15] -0.038 | [16] -0.005 | [17] 0.026 | [18] -0.03 | [19] -0.023 | [20] 0.051

PAPSS1 (UniProt O43252)
inactive: [1] 0.084 | [2] 0.021 | [3] 0.043 | [4] -0.104 | [5] -0.013 | [6] -0.092 | [7] -0.017 | [8] 0.004 | [9] -0.021 | [10] -0.011 | [11] -0.067 | [12] 0.026 | [13] -0.003 | [14] -0.013 | [15] -0.007 | [16] -0.025 | [17] 0.044 | [18] 0.022 | [19] -0.002 | [20] 0.023

PARS2 (UniProt Q7L3T8)
inactive: [1] -0.051 | [2] 0.102 | [3] -0.058 | [4] 0.007 | [5] 0.027 | [6] 0.021 | [7] -0.057 | [8] -0.004 | [9] -0.022 | [10] -0.009 | [11] 0.04 | [12] -0.078 | [13] 0.018 | [14] 0.098 | [15] -0.001 | [16] 0.065 | [17] 0.019 | [18] -0.039 | [19] 0.06 | [20] 0.012
